{"sequences": {"note": "The chains behind the UniProt entries cited, without tags or fusion partners. Where a name states a change or a piece, a line headed by the entry shows the natural chain unless it says otherwise.", "UniProt Q6PI78": "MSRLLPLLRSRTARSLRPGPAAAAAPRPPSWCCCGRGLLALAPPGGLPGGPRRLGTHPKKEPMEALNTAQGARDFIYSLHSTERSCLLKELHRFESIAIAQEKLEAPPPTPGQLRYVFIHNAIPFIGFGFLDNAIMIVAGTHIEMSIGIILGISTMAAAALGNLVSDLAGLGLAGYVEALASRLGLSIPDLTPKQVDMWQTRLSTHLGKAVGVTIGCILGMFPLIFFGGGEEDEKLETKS", "UniProt Q6UX04": "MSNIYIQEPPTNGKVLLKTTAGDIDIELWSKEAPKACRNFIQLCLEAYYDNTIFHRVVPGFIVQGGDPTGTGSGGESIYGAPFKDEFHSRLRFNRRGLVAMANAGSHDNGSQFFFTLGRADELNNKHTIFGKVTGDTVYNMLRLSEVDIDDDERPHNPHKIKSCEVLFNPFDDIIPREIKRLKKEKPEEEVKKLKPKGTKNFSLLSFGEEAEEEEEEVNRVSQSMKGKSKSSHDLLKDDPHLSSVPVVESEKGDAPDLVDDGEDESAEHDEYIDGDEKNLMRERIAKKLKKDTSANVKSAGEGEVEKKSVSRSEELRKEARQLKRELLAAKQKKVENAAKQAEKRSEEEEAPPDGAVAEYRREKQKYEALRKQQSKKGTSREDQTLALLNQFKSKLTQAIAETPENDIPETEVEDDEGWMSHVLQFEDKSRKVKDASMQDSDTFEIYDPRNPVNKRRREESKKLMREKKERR", "UniProt Q7Z333": "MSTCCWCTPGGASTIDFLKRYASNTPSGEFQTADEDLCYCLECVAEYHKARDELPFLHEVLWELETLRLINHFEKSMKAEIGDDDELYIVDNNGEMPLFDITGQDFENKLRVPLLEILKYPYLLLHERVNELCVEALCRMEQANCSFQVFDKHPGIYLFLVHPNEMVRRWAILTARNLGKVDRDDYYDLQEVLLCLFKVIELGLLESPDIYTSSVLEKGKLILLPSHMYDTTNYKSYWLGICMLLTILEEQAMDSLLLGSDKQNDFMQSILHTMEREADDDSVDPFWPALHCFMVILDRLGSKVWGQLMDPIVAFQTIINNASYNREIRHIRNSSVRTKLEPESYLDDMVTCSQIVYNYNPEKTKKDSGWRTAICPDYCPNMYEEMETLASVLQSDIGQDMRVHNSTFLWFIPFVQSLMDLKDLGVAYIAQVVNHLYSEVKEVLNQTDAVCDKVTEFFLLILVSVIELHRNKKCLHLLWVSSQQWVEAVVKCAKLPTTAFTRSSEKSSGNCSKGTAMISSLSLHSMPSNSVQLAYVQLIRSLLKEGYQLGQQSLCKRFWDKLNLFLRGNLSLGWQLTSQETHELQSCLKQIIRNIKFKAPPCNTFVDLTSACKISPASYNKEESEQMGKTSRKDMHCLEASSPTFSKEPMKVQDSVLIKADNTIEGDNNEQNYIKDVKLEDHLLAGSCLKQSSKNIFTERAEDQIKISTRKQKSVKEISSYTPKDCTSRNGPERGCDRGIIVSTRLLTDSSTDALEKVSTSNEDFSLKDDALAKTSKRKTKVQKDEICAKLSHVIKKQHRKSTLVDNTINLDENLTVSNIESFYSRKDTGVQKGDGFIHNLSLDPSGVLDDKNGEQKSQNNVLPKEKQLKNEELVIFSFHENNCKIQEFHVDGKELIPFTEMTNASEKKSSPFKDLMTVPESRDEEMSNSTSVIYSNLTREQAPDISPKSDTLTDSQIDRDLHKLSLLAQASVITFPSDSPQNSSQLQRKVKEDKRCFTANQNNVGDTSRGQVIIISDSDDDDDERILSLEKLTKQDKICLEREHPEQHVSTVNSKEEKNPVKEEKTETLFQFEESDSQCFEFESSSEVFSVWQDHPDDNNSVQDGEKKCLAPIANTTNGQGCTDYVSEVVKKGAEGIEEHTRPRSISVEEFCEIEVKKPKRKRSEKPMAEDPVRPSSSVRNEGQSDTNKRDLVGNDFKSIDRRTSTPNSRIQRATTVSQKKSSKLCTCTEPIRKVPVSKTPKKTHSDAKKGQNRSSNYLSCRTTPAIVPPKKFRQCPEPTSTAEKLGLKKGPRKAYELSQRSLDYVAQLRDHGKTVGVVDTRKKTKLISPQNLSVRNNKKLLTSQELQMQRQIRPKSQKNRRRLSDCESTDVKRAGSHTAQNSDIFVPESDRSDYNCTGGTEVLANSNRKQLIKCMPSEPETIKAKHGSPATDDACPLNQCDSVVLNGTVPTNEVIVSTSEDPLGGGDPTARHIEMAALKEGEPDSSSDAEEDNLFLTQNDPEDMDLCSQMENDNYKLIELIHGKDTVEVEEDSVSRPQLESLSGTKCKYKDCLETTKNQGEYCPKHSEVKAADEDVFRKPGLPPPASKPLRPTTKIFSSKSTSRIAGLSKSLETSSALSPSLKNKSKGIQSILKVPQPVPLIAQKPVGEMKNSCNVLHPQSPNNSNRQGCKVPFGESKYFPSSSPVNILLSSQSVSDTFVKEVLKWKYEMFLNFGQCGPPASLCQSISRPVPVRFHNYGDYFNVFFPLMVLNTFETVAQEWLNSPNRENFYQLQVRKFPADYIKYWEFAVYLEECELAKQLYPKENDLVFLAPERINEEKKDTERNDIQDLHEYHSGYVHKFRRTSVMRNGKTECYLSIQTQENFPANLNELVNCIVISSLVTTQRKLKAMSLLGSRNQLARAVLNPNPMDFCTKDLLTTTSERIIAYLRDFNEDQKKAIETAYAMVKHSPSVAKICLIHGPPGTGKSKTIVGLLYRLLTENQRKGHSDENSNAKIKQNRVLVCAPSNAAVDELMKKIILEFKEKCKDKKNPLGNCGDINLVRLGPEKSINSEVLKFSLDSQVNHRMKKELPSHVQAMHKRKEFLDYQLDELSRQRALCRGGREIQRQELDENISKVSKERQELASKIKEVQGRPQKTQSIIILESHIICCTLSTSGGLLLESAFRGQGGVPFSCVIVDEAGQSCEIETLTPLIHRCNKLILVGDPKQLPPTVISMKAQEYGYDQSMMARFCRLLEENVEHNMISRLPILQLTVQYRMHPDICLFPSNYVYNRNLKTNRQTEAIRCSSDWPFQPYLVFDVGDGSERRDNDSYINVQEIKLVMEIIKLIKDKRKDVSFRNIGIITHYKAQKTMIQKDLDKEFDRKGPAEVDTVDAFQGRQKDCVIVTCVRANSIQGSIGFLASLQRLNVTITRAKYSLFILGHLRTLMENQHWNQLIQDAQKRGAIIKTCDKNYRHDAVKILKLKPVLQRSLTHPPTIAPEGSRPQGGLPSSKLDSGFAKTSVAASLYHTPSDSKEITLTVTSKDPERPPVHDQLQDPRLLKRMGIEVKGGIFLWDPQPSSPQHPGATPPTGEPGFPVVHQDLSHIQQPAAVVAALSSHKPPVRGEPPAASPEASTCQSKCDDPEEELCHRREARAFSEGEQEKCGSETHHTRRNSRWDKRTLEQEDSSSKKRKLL", "UniProt Q8IUQ4": "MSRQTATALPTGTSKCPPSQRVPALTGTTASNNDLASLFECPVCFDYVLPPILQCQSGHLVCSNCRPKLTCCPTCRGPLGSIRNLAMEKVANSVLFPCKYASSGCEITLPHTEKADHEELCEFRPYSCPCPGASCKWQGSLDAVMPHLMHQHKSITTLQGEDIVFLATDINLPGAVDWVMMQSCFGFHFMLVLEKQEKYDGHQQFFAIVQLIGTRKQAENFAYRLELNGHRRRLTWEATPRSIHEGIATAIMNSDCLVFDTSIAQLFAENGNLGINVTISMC", "UniProt Q86T24": "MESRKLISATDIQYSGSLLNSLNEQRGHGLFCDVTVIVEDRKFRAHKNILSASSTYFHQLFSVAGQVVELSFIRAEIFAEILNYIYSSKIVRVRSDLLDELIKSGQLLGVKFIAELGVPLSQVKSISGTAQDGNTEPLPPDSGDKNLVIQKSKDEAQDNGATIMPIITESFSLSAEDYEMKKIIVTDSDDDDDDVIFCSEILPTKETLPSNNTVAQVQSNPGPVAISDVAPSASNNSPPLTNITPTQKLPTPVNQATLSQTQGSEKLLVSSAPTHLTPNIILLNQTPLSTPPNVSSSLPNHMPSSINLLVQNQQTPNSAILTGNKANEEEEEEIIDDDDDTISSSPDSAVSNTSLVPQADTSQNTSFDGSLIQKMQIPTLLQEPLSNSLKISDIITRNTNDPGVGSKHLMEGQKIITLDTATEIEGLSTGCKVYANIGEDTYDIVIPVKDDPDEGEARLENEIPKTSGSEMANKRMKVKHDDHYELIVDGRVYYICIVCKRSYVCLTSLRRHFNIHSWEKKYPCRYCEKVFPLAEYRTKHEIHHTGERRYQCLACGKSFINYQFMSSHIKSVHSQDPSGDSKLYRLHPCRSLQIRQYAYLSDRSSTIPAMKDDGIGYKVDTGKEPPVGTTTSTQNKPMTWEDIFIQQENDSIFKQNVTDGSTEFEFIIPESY", "UniProt Q7L775": "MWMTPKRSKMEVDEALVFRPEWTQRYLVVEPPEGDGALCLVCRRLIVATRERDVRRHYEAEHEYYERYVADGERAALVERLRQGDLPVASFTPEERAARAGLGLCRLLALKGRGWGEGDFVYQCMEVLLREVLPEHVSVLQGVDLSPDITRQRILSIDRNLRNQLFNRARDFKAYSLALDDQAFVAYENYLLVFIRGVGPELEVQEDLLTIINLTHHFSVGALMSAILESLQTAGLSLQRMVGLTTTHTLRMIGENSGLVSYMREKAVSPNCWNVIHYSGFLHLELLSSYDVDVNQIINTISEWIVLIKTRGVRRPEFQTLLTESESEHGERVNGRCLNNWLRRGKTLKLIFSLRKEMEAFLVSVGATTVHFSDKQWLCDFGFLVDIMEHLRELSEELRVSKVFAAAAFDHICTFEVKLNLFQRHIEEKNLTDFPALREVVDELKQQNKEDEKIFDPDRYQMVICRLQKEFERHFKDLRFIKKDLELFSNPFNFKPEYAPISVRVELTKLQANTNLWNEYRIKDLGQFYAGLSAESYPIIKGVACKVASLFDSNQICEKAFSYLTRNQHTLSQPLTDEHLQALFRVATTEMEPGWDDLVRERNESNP", "UniProt Q86UB9": "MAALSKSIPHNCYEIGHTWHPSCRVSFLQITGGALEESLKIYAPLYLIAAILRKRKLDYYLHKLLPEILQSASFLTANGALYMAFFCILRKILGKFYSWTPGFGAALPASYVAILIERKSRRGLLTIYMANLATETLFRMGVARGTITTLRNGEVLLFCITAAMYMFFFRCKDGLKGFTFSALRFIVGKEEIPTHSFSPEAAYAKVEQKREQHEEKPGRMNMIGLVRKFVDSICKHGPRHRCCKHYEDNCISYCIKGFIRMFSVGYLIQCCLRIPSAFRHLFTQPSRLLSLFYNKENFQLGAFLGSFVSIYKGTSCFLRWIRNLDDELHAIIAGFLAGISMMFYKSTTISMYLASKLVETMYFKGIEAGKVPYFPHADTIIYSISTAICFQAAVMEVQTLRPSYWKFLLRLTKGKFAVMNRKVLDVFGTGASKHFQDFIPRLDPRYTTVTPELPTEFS", "UniProt Q6PIJ6": "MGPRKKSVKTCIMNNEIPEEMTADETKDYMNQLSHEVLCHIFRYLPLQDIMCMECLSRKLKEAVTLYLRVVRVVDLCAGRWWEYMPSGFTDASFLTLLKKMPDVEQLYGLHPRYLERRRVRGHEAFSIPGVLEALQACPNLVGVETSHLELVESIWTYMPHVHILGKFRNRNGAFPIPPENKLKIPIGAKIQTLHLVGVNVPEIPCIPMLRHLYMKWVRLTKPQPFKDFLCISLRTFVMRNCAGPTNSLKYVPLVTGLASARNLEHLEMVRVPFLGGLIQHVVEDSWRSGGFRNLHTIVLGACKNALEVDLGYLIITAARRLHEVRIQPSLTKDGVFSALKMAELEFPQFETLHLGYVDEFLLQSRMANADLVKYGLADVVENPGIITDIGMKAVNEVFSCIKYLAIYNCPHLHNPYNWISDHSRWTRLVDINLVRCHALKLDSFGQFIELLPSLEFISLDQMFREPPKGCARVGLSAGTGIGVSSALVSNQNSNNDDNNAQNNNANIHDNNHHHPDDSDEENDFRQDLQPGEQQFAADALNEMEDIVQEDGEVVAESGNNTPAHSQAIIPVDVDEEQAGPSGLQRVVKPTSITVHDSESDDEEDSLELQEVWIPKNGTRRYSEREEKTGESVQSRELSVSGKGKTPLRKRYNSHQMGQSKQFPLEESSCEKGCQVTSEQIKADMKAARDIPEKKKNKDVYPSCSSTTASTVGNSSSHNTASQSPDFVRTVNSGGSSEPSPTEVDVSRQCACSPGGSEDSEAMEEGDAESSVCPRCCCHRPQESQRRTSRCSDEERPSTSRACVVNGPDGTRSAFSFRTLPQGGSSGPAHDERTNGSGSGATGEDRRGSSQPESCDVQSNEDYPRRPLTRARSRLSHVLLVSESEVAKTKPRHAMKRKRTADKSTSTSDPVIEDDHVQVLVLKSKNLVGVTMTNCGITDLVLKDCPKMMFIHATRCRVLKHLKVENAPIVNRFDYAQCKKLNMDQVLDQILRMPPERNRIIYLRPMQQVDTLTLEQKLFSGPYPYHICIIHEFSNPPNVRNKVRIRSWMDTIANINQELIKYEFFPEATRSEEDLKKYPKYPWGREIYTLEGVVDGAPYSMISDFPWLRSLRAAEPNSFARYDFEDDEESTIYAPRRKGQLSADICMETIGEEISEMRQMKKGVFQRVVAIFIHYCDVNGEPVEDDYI"}, "source": "the supplement of paper PMC6411743", "note": "± gives the standard deviation of the averaged measurements. This is a selection; strong and weak results do not stand in their true shares. Small differences around the control level are noise.", "data": [{"compound": "Nc1ncnc2c1ncn2[C@@H]1O[C@H](COP(=O)(O)OP(=O)(O)OP(=O)(O)O)[C@@H](O)[C@H]1O [adenosine triphosphate]", "assay": "NP40-soluble protein abundance relative to vehicle (solubility fold change) (ratio); higher = more soluble protein in presence of ATP", "conditions": "concentration: 0.1mM", "in_short": "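In three independent experiments, Jurkat crude lysate made by Dounce homogenisation was treated for 10 min at room temperature and then 3 min at 37 °C with eight concentrations ranging from 0.1 to 10 mM. It was then solubilised with 0.8% NP40 plus benzonase for 60 min at 4 °C and ultracentrifuged. The supernatant was TMT-labelled for LC-MS/MS, and each value is the fold change against the detergent-processed vehicle for the same replicate, using vsn-normalised intensities.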", "values": [{"target": "Q76L82 and related entries (UniProt Q8IXJ9+Q76L82)", "NP40-soluble protein abundance": "1.02 ± 0.15"}, {"target": "TMEM65 (UniProt Q6PI78)", "NP40-soluble protein abundance": "0.943 ± 0.04"}, {"target": "FASTKD5 (UniProt Q7L8L6)", "NP40-soluble protein abundance": "0.972 ± 0.098"}, {"target": "TBC1D10C (UniProt Q8IV04)", "NP40-soluble protein abundance": "1.06 ± 0.013"}, {"target": "UniProt Q6UX04", "NP40-soluble protein abundance": "1.03 ± 0.03"}, {"target": "UniProt Q86XK3 and related entries", "NP40-soluble protein abundance": "1.15 ± 0.098"}, {"target": "UniProt Q8IUH3 and related entries", "NP40-soluble protein abundance": "1.01 ± 0.043"}, {"target": "UniProt Q7Z333 and related entries", "NP40-soluble protein abundance": "0.966 ± 0.058"}, {"target": "UniProt Q86WQ0 and related entries", "NP40-soluble protein abundance": "1.05 ± 0.12"}, {"target": "UniProt Q86XN8 and related entries", "NP40-soluble protein abundance": "0.953 ± 0.18"}, {"target": "UniProt Q6PII5-2|B4DED4", "NP40-soluble protein abundance": "1.12 ± 0.1"}, {"target": "TAOK1 (UniProt Q7L7X3)", "NP40-soluble protein abundance": "1.019 ± 0.0021"}, {"target": "UniProt Q7Z3B4 and related entries", "NP40-soluble protein abundance": "1.02 ± 0.031"}, {"target": "UniProt Q6PJG6", "NP40-soluble protein abundance": "0.969 ± 0.022"}, {"target": "UniProt Q7L5D6", "NP40-soluble protein abundance": "1 ± 0.031"}, {"target": "UniProt Q86V59 and related entries", "NP40-soluble protein abundance": "1.05 ± 0.13"}, {"target": "TRAPPC6B (UniProt Q86SZ2)", "NP40-soluble protein abundance": "0.963 ± 0.036"}, {"target": "UniProt Q7Z7A4 and related entries", "NP40-soluble protein abundance": "0.993 ± 0.093"}, {"target": "UniProt Q6ZSZ5", "NP40-soluble protein abundance": "1.03 ± 0.022"}, {"target": "MTDH (UniProt Q86UE4)", "NP40-soluble protein abundance": "1.01 ± 0.028"}, {"target": "RABEPK (UniProt Q7Z6M1)", "NP40-soluble protein abundance": "1.03 ± 0.045"}, {"target": "UniProt Q86UK7 and related entries", "NP40-soluble protein abundance": "1 ± 0.03"}, {"target": "UniProt Q8IUQ4 and related entries", "NP40-soluble protein abundance": "0.964 ± 0.028"}, {"target": "UniProt Q7Z3D6-2|H0YB09 and related entries", "NP40-soluble protein abundance": "1.04 ± 0.053"}, {"target": "UniProt Q86YS7 and related entries", "NP40-soluble protein abundance": "1 ± 0.03"}, {"target": "UniProt Q6UN15 and related entries", "NP40-soluble protein abundance": "0.899 ± 0.09"}, {"target": "RAB43 (UniProt Q86YS6)", "NP40-soluble protein abundance": "1.03 ± 0.086"}, {"target": "ZBTB33 (UniProt Q86T24)", "NP40-soluble protein abundance": "1.03 ± 0.023"}, {"target": "UniProt Q6PHR2 and related entries", "NP40-soluble protein abundance": "1.02 ± 0.032"}, {"target": "UniProt Q6UXN9", "NP40-soluble protein abundance": "1.05 ± 0.081"}, {"target": "KTN1 (UniProt Q86UP2)", "NP40-soluble protein abundance": "0.961 ± 0.04"}, {"target": "EPM2AIP1 (UniProt Q7L775)", "NP40-soluble protein abundance": "1.03 ± 0.095"}, {"target": "UniProt Q7Z624", "NP40-soluble protein abundance": "1.06 ± 0.016"}, {"target": "UniProt Q6SJ93 and related entries", "NP40-soluble protein abundance": "1 ± 0.07"}, {"target": "UniProt Q7L8J4 and related entries", "NP40-soluble protein abundance": "0.947 ± 0.032"}, {"target": "UniProt Q86UB9 and related entries", "NP40-soluble protein abundance": "1.14 ± 0.14"}, {"target": "UniProt Q6PIJ6 and related entries", "NP40-soluble protein abundance": "1.002 ± 0.0028"}]}]}
